From publication PMC13043047
No constants are given. Whether binding was seen depends on the method and setting. Binding seen in cells or lysates may run through a third protein. A yes stands for co-enrichment or nearness to the bait. Other partners may have been found.

Target: LAP-tagged VP7 of human rotavirus DS1 strain (G2P[4]) (human rotavirus DS1 strain (G2P[4]))
Experiment: affinity purification with mass spectrometry; tandem affinity purification from lysate of stable LAP-tagged DS-1 VP7 cells: anti-GFP immunoprecipitation, elution by TEV protease cleavage, recapture on S-protein agarose, gel slices, LC-MS/MS

Binder | binding
signal peptidase complex subunit 1 (protein, UniProt Q9Y6A9 1-169) MARGGDTGCTGPSETSASGAAAIALPGLEGPATDAQCQTLPLTVLKSRSPSPRSLPPALSCPPPQPAMLEHLSSLPTQMDYKGQKLAEQMFQGIILFSAIVGFIYGYVAEQFGWTVYIVMAGFAFSCLLTLPPWPIYRRHPLKWLPVQESSTDDKKPGERKIKRHAKNN | binds
signal peptidase complex subunit 3 (protein, UniProt P61009 1-180) MNTVLSRANSLFAFSLSVMAALTFGCFITTAFKDRSVPVRLHVSRIMLKNVEDFTGPRERSDLGFITFDITADLENIFDWNVKQLFLYLSAEYSTKNNALNQVVLWDKIVLRGDNPKLLLKDMKTKYFFFDDGNGLKGNRNVTLTLSWNVVPNAGILPLVTGSGHVSVPFPDTYEITKSY | binds
signal peptidase complex catalytic subunit SEC11C (protein, UniProt Q9BY50 1-192) MVRAGAVGAHLPASGLDIFGDLKKMNKRQLYYQVLNFAMIVSSALMIWKGLIVLTGSESPIVVVLSGSMEPAFHRGDLLFLTNFREDPIRAGEIVVFKVEGRDIPIVHRVIKVHEKDNGDIKFLTKGDNNEVDDRGLYKEGQNWLEKKDVVGRARGFLPYVGMVTIIMNDYPKFKYALLAVMGAYVLLKRES | binds
